According to PubChem BioAssay AID254 (DTP/NCI, 2004):
The list does not hold the whole screen: it covers a few groups of compounds. Not every dose and run of a compound is shown. T/C: endpoint of the treated group in % of that of the vehicle group. Some entries give survivors of the animals treated and no T/C: the source files T/C as zero there, which appears to mark a toxic dose or a test without result, not a measured value. Some survivor counts are full or nearly so, which does not show that the dose was tolerated: the source hardly ever lists a survival T/C far under the control, and the zero likely stands for such cases as well. Survivors were counted at the toxicity check, usually on the fifth day, unless a day is given; later deaths do not show. Schedule codes are those of the source, taken here to give the interval after Q, in days (D) or hours (H), and the number of doses after X. For survival time, the PubChem record calls one and a half times the control and up active, and a quarter to a half above the control has no call in these data; cut-offs in other NCI protocols can differ. Some entries hold several experiments; their values stand side by side, smallest first. Some T/C values carry the count of animals alive at the toxicity check (mostly the fifth day); where neither a count nor a note follows, no animal had died by that day.

Test system: L1210 leukemia iv in BDF1 mice, survival T/C
Assay: NCI In Vivo Anticancer Drug Screen. Data for tumor model L1210 Leukemia (intravenous) in B6D2F1 (BDF1) mice
Conditions: T/C endpoint: mean survival time, higher T/C = longer survival
Description: The antitumor activity of compounds was measured in mice bearing transplantable tumors. Survival or tumor size were measured and the results are expressed as the measurement made in the treated group (T) divided by the measurement made in the vehicle treated control group (C). The tumor model used in this assay is L1210 Leukemia (intravenous) in B6D2F1 (BDF1) mice

[1] = dose: 100.0 mg/kg/injection, schedule: Q07DX004 (ip), vehicle: clinical formulation
[2] = dose: 150.0 mg/kg/injection, schedule: Q07DX008 (ip), vehicle: clinical formulation

For `NC(=O)c1[nH]cnc1/N=N\N(CCCl)CCCl`, the T/C (dose: 6.6 mg/kg/injection, schedule: Q02DX008 (ip), vehicle: clinical formulation) was 97 % of control, the T/C (dose: 7.5 mg/kg/injection, schedule: Q03HX032 (ip), vehicle: clinical formulation) was 123 % of control and the T/C (dose: 10.0 mg/kg/injection, schedule: Q02DX008 (ip), vehicle: clinical formulation) was 100 % of control. For the same molecule, the T/C (dose: 11.0 mg/kg/injection, schedule: Q03HX032 (ip), vehicle: clinical formulation) was 210 % of control, the T/C (dose: 13.0 mg/kg/injection, schedule: Q01DX015 (ip), vehicle: clinical formulation) was 110 % of control and the T/C (dose: 15.0 mg/kg/injection, schedule: Q02DX008 (ip), vehicle: clinical formulation) was 112 % of control. The T/C (dose: 17.0 mg/kg/injection, schedule: Q03HX032 (ip), vehicle: clinical formulation) was 248 % of control, the T/C (dose: 20.0 mg/kg/injection, schedule: Q01DX015 (ip), vehicle: clinical formulation) was 134 % of control and the T/C (dose: 22.5 mg/kg/injection, schedule: Q02DX008 (ip), vehicle: clinical formulation) was 129 % of control. For the same molecule, the T/C (dose: 26.0 mg/kg/injection, schedule: Q03HX032 (ip), vehicle: clinical formulation) was 582 % of control, the T/C (dose: 27.0 mg/kg/injection, schedule: Q01DX001 (ip), vehicle: other, evaluated on day 3) was 133 % of control and the T/C (dose: 27.0 mg/kg/injection, schedule: Q01DX001 (ip), vehicle: other, evaluated on day 60) was 133 % of control. For the same molecule, the T/C (dose: 30.0 mg/kg/injection, schedule: Q01DX015 (ip), vehicle: clinical formulation) was 163 % of control, the T/C (dose: 34.0 mg/kg/injection, schedule: Q02DX008 (ip), vehicle: clinical formulation) was 131 % of control and the T/C (dose: 38.0 mg/kg/injection, schedule: Q03HX032 (ip), vehicle: clinical formulation) was 487 % of control. The T/C (dose: 45.0 mg/kg/injection, schedule: Q01DX015 (ip), vehicle: clinical formulation) was 331 % of control, the T/C (dose: 53.0 mg/kg/injection, schedule: Q01DX001 (ip), vehicle: Klucel (hydroxypropylcellulose) (HPC)) was 163 % of control and the T/C (dose: 53.0 mg/kg/injection, schedule: Q01DX001 (ip), vehicle: other, evaluated on day 3) was 163, 179, 190 % of control. The T/C (dose: 53.0 mg/kg/injection, schedule: Q01DX001 (ip), vehicle: other, evaluated on day 60) was 179 and 190 % of control, the T/C (dose: 60.0 mg/kg/injection, schedule: Q04DX004 (ip), vehicle: clinical formulation) was 187 % of control and the T/C (dose: 67.0 mg/kg/injection, schedule: Q07DX004 (ip), vehicle: clinical formulation) was 187, 192, 221 % of control. The T/C (dose: 67.0 mg/kg/injection, schedule: Q07DX006 (ip), vehicle: clinical formulation) was 187, 195, 204 % of control, the T/C (dose: 67.0 mg/kg/injection, schedule: Q07DX008 (ip), vehicle: clinical formulation) was 176, 187, 197 % of control and the T/C (dose: 67.0 mg/kg/injection, schedule: Q07DX010 (ip), vehicle: clinical formulation) was 195, 196, 217 % of control. For the same molecule, the T/C (dose: 68.0 mg/kg/injection, schedule: Q01DX015 (ip), vehicle: clinical formulation) was 510 % of control, the T/C (dose: 83.0 mg/kg/injection, schedule: Q01DX001 (ip), vehicle: clinical formulation, evaluated on day 3) was 229 % of control and the T/C (dose: 83.0 mg/kg/injection, schedule: Q01DX001 (ip), vehicle: clinical formulation, evaluated on day 60) was 229 % of control. For the same molecule, the T/C (dose: 90.0 mg/kg/injection, schedule: Q04DX004 (ip), vehicle: clinical formulation) was 376 % of control, the T/C [1] was 313 and 817 % of control and the survivor count [1] was 10 of 10. The T/C (dose: 100.0 mg/kg/injection, schedule: Q07DX006 (ip), vehicle: clinical formulation) was 304, 539, 751 % of control, the T/C (dose: 100.0 mg/kg/injection, schedule: Q07DX008 (ip), vehicle: clinical formulation) was 390, 687, 732 % of control and the T/C (dose: 100.0 mg/kg/injection, schedule: Q07DX010 (ip), vehicle: clinical formulation) was 272, 387, 480 % of control. The T/C (dose: 106.0 mg/kg/injection, schedule: Q01DX001 (ip), vehicle: Klucel (hydroxypropylcellulose) (HPC)) was 197 % of control, the T/C (dose: 106.0 mg/kg/injection, schedule: Q01DX001 (ip), vehicle: other, evaluated on day 3) was 197, 212, 230 % of control and the T/C (dose: 106.0 mg/kg/injection, schedule: Q01DX001 (ip), vehicle: other, evaluated on day 60) was 212 and 230 % of control. For the same molecule, the T/C (dose: 120.0 mg/kg/injection, schedule: Q01DX001 (ip), vehicle: clinical formulation) was 231 % of control, the T/C (dose: 120.0 mg/kg/injection, schedule: Q01DX001 (ip), vehicle: other, evaluated on day 3) was 197 % of control and the T/C (dose: 120.0 mg/kg/injection, schedule: Q01DX001 (ip), vehicle: other, evaluated on day 60) was 197 % of control. For the same molecule, the T/C (dose: 121.0 mg/kg/injection, schedule: Q01DX001 (ip), vehicle: clinical formulation, evaluated on day 3) was 411 % of control, the T/C (dose: 121.0 mg/kg/injection, schedule: Q01DX001 (ip), vehicle: clinical formulation, evaluated on day 60) was 411 % of control and the T/C (dose: 135.0 mg/kg/injection, schedule: Q04DX004 (ip), vehicle: clinical formulation) was 514 % of control. The T/C (dose: 150.0 mg/kg/injection, schedule: Q07DX004 (ip), vehicle: clinical formulation) was 353, 521, 861 % of control, the T/C (dose: 150.0 mg/kg/injection, schedule: Q07DX006 (ip), vehicle: clinical formulation) was 771, 883, 931 % of control and the T/C [2] was 146 and 804 % of control. The survivor count [2] was 10 of 10, the T/C (dose: 150.0 mg/kg/injection, schedule: Q07DX010 (ip), vehicle: clinical formulation) was 441, 694, 708 % of control and the T/C (dose: 159.0 mg/kg/injection, schedule: Q01DX001 (ip), vehicle: Klucel (hydroxypropylcellulose) (HPC)) was 223 % of control. For the same molecule, the T/C (dose: 159.0 mg/kg/injection, schedule: Q01DX001 (ip), vehicle: other, evaluated on day 3) was 223, 235, 250 % of control, the T/C (dose: 159.0 mg/kg/injection, schedule: Q01DX001 (ip), vehicle: other, evaluated on day 60) was 235 and 250 % of control and the T/C (dose: 180.0 mg/kg/injection, schedule: Q01DX001 (ip), vehicle: clinical formulation) was 310 % of control. The T/C (dose: 180.0 mg/kg/injection, schedule: Q01DX001 (ip), vehicle: other, evaluated on day 3) was 231 % of control, the T/C (dose: 180.0 mg/kg/injection, schedule: Q01DX001 (ip), vehicle: other, evaluated on day 60) was 231 % of control and the T/C (dose: 185.0 mg/kg/injection, schedule: Q01DX001 (ip), vehicle: clinical formulation, evaluated on day 3) was 509 % of control. For the same molecule, the T/C (dose: 185.0 mg/kg/injection, schedule: Q01DX001 (ip), vehicle: clinical formulation, evaluated on day 60) was 509 % of control, the T/C (dose: 202.0 mg/kg/injection, schedule: Q04DX004 (ip), vehicle: clinical formulation) was 310 % of control and the T/C (dose: 212.0 mg/kg/injection, schedule: Q01DX001 (ip), vehicle: Klucel (hydroxypropylcellulose) (HPC)) was 221 % of control. The T/C (dose: 212.0 mg/kg/injection, schedule: Q01DX001 (ip), vehicle: other, evaluated on day 3) was 221, 254, 283 % of control, the T/C (dose: 212.0 mg/kg/injection, schedule: Q01DX001 (ip), vehicle: other, evaluated on day 60) was 254 and 283 % of control and the T/C (dose: 225.0 mg/kg/injection, schedule: Q07DX004 (ip), vehicle: clinical formulation) was 377 [9 of 10 alive], 404, 764 % of control [9 of 10 alive]. For the same molecule, the T/C (dose: 225.0 mg/kg/injection, schedule: Q07DX006 (ip), vehicle: clinical formulation) was 347, 353, 378 % of control, the T/C (dose: 225.0 mg/kg/injection, schedule: Q07DX008 (ip), vehicle: clinical formulation) was 465, 469, 531 % of control and the T/C (dose: 225.0 mg/kg/injection, schedule: Q07DX010 (ip), vehicle: clinical formulation) was 412, 421, 439 % of control. The T/C (dose: 265.0 mg/kg/injection, schedule: Q01DX001 (ip), vehicle: Klucel (hydroxypropylcellulose) (HPC)) was 270 % of control, the T/C (dose: 265.0 mg/kg/injection, schedule: Q01DX001 (ip), vehicle: other, evaluated on day 3) was 270, 280, 295 % of control and the T/C (dose: 265.0 mg/kg/injection, schedule: Q01DX001 (ip), vehicle: other, evaluated on day 60) was 280 and 295 % of control. For the same molecule, the T/C (dose: 270.0 mg/kg/injection, schedule: Q01DX001 (ip), vehicle: clinical formulation) was 182 % of control, the T/C (dose: 270.0 mg/kg/injection, schedule: Q01DX001 (ip), vehicle: other, evaluated on day 3) was 309 % of control and the T/C (dose: 270.0 mg/kg/injection, schedule: Q01DX001 (ip), vehicle: other, evaluated on day 60) was 309 % of control. The T/C (dose: 276.0 mg/kg/injection, schedule: Q01DX001 (ip), vehicle: clinical formulation, evaluated on day 3) was 735 % of control, the T/C (dose: 276.0 mg/kg/injection, schedule: Q01DX001 (ip), vehicle: clinical formulation, evaluated on day 60) was 735 % of control and the T/C (dose: 306.0 mg/kg/injection, schedule: Q04DX004 (ip), vehicle: clinical formulation) was 136 % of control. For the same molecule, the T/C (dose: 318.0 mg/kg/injection, schedule: Q01DX001 (ip), vehicle: other, evaluated on day 3) was 297 % of control, the T/C (dose: 318.0 mg/kg/injection, schedule: Q01DX001 (ip), vehicle: other, evaluated on day 60) was 297 % of control and the T/C (dose: 371.0 mg/kg/injection, schedule: Q01DX001 (ip), vehicle: other, evaluated on day 3) was 349 % of control. The T/C (dose: 371.0 mg/kg/injection, schedule: Q01DX001 (ip), vehicle: other, evaluated on day 60) was 350 % of control, the T/C (dose: 400.0 mg/kg/injection, schedule: Q01DX001 (ip), vehicle: other, evaluated on day 3) was 297 % of control and the T/C (dose: 400.0 mg/kg/injection, schedule: Q01DX001 (ip), vehicle: other, evaluated on day 60) was 297 % of control. The survivor count (dose: 405.0 mg/kg/injection, schedule: Q01DX001 (ip), vehicle: clinical formulation) was 3 of 10, the T/C (dose: 600.0 mg/kg/injection, schedule: Q01DX001 (ip), vehicle: other, evaluated on day 3) was 413 % of control and the T/C (dose: 600.0 mg/kg/injection, schedule: Q01DX001 (ip), vehicle: other, evaluated on day 60) was 413 % of control. For the same molecule, the survivor count (dose: 606.0 mg/kg/injection, schedule: Q01DX001 (ip), vehicle: clinical formulation) was 3 of 10.
